Results as given in US20150050728A1, “Identification Of Novel Cell Surface Markers For Pancreatic Progenitor Cells And Definite Endodermal Cells” (priority 2010, published 2015).

Tests used:
PDX1-GFP cells [1] = test: Affymetrix Human Gene ST1.0 microarray, PDX1-GFP cells vs SOX17-GFP cells
Pancreas cells = test: Partek cluster analysis of stage specific genes (hESC, SOX17, PDX1, Pancreas), fold change and T-test; set-up: species or system human; details: for PDX1/PANC fold change / SOX17/PANC fold change: Table 19; for PDX1/PANC fold change: expression in PDX1-GFP cells vs Pancreas cells; for SOX17/PANC fold change: expression in SOX17-GFP cells vs Pancreas cells
PDX1-GFP cells [2] = test: Affymetrix Human Gene ST1.0 microarray, PDX1-GFP cells vs genetically unmodified hESCs; details: non-membranal genes down-regulated; expression in PDX1-GFP cells vs genetically unmodified HESCs; (−) = downregulated
[3] = non-membranal genes downregulated in PDX1 cells as compared to SOX17 cells, log 2 fold change in expression, PDX1-GFP cells vs SOX17-GFP cells, (−) = downregulated in PDX1-GFP cells
[4] = Table 13, SOX17 specific cell surface genes, expression in SOX17-GFP cells vs undifferentiated hESCs

Substance | Log 2 fold change [PDX-SOX17] (PDX1-GFP cells [1]; [3]) | SOX17/HESC fold change (Pancreas cells; [4]) | PDX1/PANC fold change (Pancreas cells) | SOX17/PANC fold change (Pancreas cells) | SOX17/HESC fold change (Pancreas cells; change in expression level of the gene between SOX17-GFP cells and undifferentiated hESCs, Affymetrix probe set) | Log 2 fold change [PDX-SOX17] (PDX1-GFP cells [1]; expression level of the gene in PDX1-GFP cells as compared to SOX17-GFP cells, non-membranal genes upregulated in PDX1 cells, Affymetrix probe set) | Log 2 fold change [PDX1-HESC] (PDX1-GFP cells [2])
APOA1 | −2.94 and −2.89 | 7.79 and 7.44 | 2.20 and 2.21 | 8.83 and 8.49 | – | – | –
BMP2 | −4.43 | 3.36 | – | – | – | – | –
DKK1 | −5.03 | – | 9.73 | 73.19 | 12.95 | – | –
FGF2 | – | – | – | – | – | 3.44 | –
NODAL | −2.26 | – | – | – | – | – | −4.21
NPPB | −3.32 | – | – | – | – | – | −2.35

Where “and” joins values, the source holds several entries; their conditions need not be identical. Identical values can stand only once.
